Data published in paper PMC11914233.
These are yes or no findings as the source states them, for the method shown. In cells and extracts the contact can be indirect. Binding can be weak; no strength is given. Sequences can lack the tags named with a protein.

Chains of the proteins cited; added tags and fusions are not shown. Lines headed by an entry give the natural chain unless they say otherwise; changes in a name come on top.
UniProt Q9D8T2: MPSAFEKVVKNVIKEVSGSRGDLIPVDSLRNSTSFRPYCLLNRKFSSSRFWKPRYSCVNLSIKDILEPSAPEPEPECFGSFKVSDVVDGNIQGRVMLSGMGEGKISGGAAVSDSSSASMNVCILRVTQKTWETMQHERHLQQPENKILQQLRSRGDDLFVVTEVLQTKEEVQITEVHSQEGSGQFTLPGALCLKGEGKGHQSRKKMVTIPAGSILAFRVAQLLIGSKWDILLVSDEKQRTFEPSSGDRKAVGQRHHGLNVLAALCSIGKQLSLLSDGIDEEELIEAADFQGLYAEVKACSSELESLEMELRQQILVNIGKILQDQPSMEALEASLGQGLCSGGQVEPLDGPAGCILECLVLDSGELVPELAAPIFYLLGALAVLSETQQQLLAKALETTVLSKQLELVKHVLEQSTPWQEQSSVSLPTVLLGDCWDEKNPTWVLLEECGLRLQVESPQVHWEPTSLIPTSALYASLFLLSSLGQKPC

Target: Flag-tagged gasdermin D N-terminal domain (mouse) (mouse) (UniProt Q9D8T2)
Experiment: co-IP; lysates of co-transfected cells in EBC buffer (50 mM Tris pH 7.5, 120 mM NaCl, 0.5% NP-40); anti-Flag or anti-HA agarose beads, 4 h at 4 °C; immunoblot

- binding: binds
B1: HA-TRAF1 (human) (enzyme, UniProt Q13077 1-416)
chain: MASSSGSSPRPAPDENEFPFGCPPTVCQDPKEPRALCCAGCLSENPRNGEDQICPKCRGEDLQSISPGSRLRTQEKAHPEVAEAGIGCPFAGVGCSFKGSPQSVQEHEVTSQTSHLNLLLGFMKQWKARLGCGLESGPMALEQNLSDLQLQAAVEVAGDLEVDCYRAPCSESQEELALQHFMKEKLLAELEGKLRVFENIVAVLNKEVEASHLALATSIHQSQLDRERILSLEQRVVELQQTLAQKDQALGKLEQSLRLMEEASFDGTFLWKITNVTRRCHESACGRTVSLFSPAFYTAKYGYKLCLRLYLNGDGTGKRTHLSLFIVIMRGEYDALLPWPFRNKVTFMLLDQNNREHAIDAFRPDLSSASFQRPQSETNVASGCPLFFPLSKLQSPKHAYVKDDTMFLKCIVETST
